Results from patent US6800470B2, “Mammalian sphingosine kinase type 2 isoforms, cloning, expression and methods of use thereof” (Sankyo Company, Ltd., priority 2000, dated 2004).

B1: mSPHK2: murine sphingosine kinase type 2, polypeptide of 617 amino acids (SEQ ID NO 12) (protein)
chain: MAPPPLLPVAASTPILHGEFGSYPANGPRFALTLTTQALHIQRLRPKPEARPRDGLVSLDEVSGCGTLQSRSPEDTAAYFCIYTYPRGRRGGRRRATRTFRADGATTYEENRAEAQRWATALTCLLRGVPLSGDQEITPELLPRKPRLLILVNPFGGRGLAWQRCMDHVVPMISEAGLSFNLIQTERQNHARELVQGLSLSEWEGIVTVSGDGLLYEVLNGLLDRPDWEDAVRMPIGVLPCGSGNALAGAVSHHGGFEQVVGVDLLLNCSLLLCRGGSHPLDLLSVTLASGSRCFSFLSVAWGFLSDVDIHSERFRALGSARFTLGAVLGLASLHTYRGRLSYLPATTEPALPIPGHSLPRAKSELVLAPAPAPAATHSPLHRSVSDLPLPLPQPALVSPGSPEPLPDLSLNGGGPELTGDWGGAGDAPLSPDPLLPSSPNALKTAQLSPIAEGPPEMPASSGFLPPTHSAPEASTWGPVDHLLPPLGSPLPQDWVTIEGEFVLMLGILTSHLCADLMAAPHARFDDGVVHLCWVRSGISRAALLRIFLAMEHGNHFSLGCPHLGYAAARAFRLEPLTPRGLLTVDGELVEYGPIQAQVHPGLATLLTGPAGQKPQA
B2: hSPHK2: human sphingosine kinase type 2, polypeptide of 618 amino acids (SEQ ID NO 14) (protein)
chain: MAPPPPPLAASTPLLHGEFGSYPARGPRFALTLTSQALHIQRLRPKPEARPRGGLVPLAEVSGCCTLRSRSPSDSAAYFCIYTYPRGRRGARRRATRTFRADGAATYEENRAEAQRWATALTCLLRGLPLPGDGEITPDLLPRPPRLLLLVNPFGGRGLAWQWCKNHVLPMISEAGLSFNLIQTERQNHARELVQGLSLSEWDGIVTVSGDGLLHEVLNGLLDRPDWEEAVKMPVGILPCGSGNALAGAVNQHGGFEPALGLDLLLNCSLLLCRGGGHPLDLLSVTLASGSRCFSFLSVAWGFVSDVDIQSERFRALGSARFTLGTVLGLATLHTYRGRLSYLPATVEPASPTPAHSLPRAKSELTLTPDPAPPMAHSPLHRSVSDLPLPLPQPALASPGSPEPLPILSLNGGGPELAGDWGGAGDAPLSPDPLLSSPPGSPKAALHSPVSEGAPVIPPSSGLPLPTPDARVGASTCGPPDHLLPPLGTPLPPDWVTLEGDFVLMLAISPSHLGADLVAAPHARFDDGLVHLCWVRSGISRAALLRLFLAMERGSHFSLGCPQLGYAAARAFRLEPLTPRGVLTVDGEQVEYGPLQAQMHPGIGTLLTGPPGCPGREP

Tested on: HEK293 cells
Test: SPHK activity in HEK293 cells transiently transfected with SPHK expression vectors (cytosol and particulate fractions)
Assay type: cell-based, human
Details: transfected HEK293 cells, 100,000×g fractions
Method: In FIG. 3A, HEK 293 cells were transiently transfected with an empty vector or with mSPHK2 or hSPHK2 expression vectors. After 24 hours, SPHK activity was measured in cytosol (open bars) and particulate fractions (filled bars). The data are means±S.D. Parental and vector-transfected cells had basal SPHK activities of 26 and 37 pmol/min/mg, respectively.
Human embryonic kidney cells (HEK293, ATCC CRL-1573) and NIH 3T3 fibroblasts (ATCC CRL-1658) were cultured as described in Olivera, A., Kohama, T., Edsall, L. C., Nava, V., Cuvillier, O., Poulton, S., and Spiegel, S., J. Cell Biol., 147 (1999) 545-558. HEK293 cells were seeded at 6×10^5 per well in poly-L-lysine coated 6 well plates. After 24 hours, cells were transfected with 1 μg of vector alone or with vectors containing sphingosine kinase constructs and 6 μl of “Lipofectamine PLUS” reagent plus 4 μl of “Lipofectamine” reagent per well. One to three days after transfection, cells were harvested and lysed by freeze-thawing as described in Kohama, T., Olivera, A., Edsall, L., Nagiec, M. M., Dickson, R., and Spiegel, S., J. Biol. Chem., 273, (1998), 23722-23728. […] SPHK activity was determined in the presence of sphingosine, prepared as a complex with 4 mg/ml BSA, and [g-32P] […] 32P-SPP was separated by TLC and quantified with a phosphoimager as previously described.

Molecule | share of SPHK activity that is membrane-associated [%]
B1 | 17
B2 | 26
